Laboratory results from the supplement of paper PMC10849652.
This is one part of the list. Residues, ends and D or L forms follow the SMILES beside them. *: point of attachment. Cbz = O=C(OCc1ccccc1)*

By UniProt entry, the sequences of proteins in these tests, tags left out. Where a name states a change or a piece, a line headed by the entry shows the natural chain unless it says otherwise.
UniProt O95486: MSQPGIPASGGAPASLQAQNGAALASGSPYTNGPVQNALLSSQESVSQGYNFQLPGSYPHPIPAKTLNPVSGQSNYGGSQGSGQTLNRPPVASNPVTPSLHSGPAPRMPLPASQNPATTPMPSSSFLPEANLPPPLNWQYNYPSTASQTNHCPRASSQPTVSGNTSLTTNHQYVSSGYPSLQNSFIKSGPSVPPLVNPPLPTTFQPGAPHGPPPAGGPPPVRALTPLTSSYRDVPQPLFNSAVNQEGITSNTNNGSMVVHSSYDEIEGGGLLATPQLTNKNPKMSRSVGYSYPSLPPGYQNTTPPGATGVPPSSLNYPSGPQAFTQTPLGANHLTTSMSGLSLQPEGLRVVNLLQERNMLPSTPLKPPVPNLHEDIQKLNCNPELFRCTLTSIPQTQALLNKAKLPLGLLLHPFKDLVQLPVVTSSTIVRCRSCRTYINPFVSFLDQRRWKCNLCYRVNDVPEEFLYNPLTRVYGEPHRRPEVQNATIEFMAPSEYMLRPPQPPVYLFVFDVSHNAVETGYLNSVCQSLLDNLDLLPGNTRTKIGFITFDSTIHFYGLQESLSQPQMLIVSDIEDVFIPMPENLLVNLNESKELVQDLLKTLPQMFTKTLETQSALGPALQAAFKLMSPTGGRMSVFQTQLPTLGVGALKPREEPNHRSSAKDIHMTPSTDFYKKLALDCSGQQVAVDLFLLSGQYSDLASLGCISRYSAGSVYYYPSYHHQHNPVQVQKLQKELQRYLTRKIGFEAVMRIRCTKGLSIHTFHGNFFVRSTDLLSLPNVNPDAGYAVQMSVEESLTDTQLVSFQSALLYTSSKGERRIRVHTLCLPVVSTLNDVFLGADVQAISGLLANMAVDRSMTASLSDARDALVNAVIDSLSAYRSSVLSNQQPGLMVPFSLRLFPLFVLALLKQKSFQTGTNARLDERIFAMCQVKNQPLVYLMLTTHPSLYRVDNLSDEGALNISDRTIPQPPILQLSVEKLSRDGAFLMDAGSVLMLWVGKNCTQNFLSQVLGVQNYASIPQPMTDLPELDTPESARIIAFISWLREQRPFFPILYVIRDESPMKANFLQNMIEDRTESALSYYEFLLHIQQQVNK
UniProt O94979: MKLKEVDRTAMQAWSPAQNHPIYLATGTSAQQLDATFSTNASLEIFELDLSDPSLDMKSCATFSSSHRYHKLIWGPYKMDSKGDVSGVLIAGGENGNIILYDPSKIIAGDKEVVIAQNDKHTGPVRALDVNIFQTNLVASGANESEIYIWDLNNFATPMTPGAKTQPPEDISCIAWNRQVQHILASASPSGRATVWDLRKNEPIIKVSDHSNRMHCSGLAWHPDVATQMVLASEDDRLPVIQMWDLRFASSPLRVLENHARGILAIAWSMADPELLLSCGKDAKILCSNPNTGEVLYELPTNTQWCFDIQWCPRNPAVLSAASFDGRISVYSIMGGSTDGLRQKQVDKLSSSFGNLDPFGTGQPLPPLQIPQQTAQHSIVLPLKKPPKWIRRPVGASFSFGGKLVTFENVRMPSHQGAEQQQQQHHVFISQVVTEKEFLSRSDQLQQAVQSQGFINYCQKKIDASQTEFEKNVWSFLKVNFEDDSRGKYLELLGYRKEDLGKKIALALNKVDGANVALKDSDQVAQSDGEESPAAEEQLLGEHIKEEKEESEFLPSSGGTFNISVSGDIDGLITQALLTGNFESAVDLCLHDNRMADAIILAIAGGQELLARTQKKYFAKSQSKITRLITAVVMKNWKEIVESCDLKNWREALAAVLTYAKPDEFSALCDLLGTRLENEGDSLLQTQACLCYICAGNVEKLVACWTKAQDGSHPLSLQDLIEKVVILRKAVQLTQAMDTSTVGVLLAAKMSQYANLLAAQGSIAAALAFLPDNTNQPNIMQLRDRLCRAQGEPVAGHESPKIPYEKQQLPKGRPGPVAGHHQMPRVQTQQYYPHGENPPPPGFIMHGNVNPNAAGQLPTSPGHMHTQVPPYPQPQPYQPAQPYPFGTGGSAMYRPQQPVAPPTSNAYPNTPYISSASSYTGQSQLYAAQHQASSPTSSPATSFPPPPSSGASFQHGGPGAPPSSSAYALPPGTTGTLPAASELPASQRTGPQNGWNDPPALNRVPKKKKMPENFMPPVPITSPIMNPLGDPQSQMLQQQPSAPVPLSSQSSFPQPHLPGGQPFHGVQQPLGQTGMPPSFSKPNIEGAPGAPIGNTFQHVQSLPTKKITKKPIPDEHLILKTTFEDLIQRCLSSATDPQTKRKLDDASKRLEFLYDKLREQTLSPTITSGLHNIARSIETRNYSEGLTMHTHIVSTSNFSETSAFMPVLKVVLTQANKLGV
UniProt Q9NSI8: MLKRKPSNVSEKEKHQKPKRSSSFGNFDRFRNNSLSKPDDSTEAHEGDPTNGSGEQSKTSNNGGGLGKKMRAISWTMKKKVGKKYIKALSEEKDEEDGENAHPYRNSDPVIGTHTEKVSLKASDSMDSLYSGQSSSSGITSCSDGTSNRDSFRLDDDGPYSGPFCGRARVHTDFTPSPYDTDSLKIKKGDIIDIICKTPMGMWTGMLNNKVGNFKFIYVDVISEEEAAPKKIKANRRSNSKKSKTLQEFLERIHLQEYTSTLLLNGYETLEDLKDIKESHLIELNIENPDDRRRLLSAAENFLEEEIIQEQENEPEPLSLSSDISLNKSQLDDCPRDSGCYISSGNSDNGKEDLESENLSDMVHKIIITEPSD
UniProt Q9NRP4: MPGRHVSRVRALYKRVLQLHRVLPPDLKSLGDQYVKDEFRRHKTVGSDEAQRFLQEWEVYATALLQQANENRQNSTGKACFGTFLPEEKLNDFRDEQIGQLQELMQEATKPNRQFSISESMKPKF
UniProt Q96GA7: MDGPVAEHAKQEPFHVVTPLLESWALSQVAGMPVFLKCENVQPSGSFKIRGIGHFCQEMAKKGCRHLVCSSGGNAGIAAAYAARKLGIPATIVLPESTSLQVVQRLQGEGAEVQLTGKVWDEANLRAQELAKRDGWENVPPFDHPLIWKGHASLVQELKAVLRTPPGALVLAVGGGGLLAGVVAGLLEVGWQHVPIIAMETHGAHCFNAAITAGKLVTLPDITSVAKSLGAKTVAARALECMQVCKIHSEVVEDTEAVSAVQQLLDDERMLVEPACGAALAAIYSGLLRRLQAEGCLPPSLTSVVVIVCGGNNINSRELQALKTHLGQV
UniProt Q96ER3: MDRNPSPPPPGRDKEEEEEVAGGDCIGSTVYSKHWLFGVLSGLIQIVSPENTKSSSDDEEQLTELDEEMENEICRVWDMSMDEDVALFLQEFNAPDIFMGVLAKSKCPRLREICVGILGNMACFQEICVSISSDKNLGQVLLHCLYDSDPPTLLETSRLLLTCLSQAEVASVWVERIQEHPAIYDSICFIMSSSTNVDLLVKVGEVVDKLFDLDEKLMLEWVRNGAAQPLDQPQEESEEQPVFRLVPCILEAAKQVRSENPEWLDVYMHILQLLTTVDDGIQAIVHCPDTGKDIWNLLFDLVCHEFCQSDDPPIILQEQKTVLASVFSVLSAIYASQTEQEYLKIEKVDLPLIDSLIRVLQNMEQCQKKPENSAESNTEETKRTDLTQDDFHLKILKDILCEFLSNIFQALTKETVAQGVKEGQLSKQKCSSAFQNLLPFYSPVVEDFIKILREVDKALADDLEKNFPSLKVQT
UniProt Q6NW29: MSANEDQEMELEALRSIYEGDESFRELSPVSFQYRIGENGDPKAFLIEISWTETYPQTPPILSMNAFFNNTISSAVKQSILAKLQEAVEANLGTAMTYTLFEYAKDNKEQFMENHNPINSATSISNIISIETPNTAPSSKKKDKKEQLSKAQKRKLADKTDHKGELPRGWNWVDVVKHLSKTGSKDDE
UniProt Q8WWV3: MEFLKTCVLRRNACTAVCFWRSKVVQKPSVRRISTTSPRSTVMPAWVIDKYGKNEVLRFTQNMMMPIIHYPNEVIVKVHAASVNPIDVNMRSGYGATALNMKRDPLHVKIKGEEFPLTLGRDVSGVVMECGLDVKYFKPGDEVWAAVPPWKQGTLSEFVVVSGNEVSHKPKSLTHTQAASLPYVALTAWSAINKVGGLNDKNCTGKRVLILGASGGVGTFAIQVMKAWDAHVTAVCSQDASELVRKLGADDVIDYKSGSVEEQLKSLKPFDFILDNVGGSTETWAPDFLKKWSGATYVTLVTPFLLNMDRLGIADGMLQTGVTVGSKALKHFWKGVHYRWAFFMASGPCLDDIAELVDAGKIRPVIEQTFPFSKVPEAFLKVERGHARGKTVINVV
UniProt Q9BRK5: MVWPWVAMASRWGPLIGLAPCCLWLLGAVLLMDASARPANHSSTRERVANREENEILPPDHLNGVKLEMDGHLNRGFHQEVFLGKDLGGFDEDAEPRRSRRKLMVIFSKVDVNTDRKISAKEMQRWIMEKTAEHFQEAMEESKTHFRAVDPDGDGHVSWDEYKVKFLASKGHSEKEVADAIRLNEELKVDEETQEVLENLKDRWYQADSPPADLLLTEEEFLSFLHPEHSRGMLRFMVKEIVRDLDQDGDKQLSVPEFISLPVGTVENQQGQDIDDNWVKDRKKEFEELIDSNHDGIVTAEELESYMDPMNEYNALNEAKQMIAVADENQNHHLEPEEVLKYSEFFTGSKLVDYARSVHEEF
UniProt Q8NBX0: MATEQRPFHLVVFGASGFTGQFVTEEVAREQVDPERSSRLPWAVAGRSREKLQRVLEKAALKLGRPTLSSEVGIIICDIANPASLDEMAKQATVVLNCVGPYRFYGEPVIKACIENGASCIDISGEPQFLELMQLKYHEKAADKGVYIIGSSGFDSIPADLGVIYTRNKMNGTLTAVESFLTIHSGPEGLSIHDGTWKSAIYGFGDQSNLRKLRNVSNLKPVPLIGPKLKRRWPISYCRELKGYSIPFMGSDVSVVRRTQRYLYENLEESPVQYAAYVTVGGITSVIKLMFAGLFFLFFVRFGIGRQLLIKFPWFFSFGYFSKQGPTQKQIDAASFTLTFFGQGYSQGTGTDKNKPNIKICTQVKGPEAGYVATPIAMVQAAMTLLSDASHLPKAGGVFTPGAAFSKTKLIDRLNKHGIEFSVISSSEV
UniProt Q99643: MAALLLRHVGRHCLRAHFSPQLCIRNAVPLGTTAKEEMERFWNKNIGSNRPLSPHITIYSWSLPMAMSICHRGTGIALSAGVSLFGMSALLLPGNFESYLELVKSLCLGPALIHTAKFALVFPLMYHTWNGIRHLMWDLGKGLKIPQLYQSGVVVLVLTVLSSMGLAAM
UniProt Q9UPN6: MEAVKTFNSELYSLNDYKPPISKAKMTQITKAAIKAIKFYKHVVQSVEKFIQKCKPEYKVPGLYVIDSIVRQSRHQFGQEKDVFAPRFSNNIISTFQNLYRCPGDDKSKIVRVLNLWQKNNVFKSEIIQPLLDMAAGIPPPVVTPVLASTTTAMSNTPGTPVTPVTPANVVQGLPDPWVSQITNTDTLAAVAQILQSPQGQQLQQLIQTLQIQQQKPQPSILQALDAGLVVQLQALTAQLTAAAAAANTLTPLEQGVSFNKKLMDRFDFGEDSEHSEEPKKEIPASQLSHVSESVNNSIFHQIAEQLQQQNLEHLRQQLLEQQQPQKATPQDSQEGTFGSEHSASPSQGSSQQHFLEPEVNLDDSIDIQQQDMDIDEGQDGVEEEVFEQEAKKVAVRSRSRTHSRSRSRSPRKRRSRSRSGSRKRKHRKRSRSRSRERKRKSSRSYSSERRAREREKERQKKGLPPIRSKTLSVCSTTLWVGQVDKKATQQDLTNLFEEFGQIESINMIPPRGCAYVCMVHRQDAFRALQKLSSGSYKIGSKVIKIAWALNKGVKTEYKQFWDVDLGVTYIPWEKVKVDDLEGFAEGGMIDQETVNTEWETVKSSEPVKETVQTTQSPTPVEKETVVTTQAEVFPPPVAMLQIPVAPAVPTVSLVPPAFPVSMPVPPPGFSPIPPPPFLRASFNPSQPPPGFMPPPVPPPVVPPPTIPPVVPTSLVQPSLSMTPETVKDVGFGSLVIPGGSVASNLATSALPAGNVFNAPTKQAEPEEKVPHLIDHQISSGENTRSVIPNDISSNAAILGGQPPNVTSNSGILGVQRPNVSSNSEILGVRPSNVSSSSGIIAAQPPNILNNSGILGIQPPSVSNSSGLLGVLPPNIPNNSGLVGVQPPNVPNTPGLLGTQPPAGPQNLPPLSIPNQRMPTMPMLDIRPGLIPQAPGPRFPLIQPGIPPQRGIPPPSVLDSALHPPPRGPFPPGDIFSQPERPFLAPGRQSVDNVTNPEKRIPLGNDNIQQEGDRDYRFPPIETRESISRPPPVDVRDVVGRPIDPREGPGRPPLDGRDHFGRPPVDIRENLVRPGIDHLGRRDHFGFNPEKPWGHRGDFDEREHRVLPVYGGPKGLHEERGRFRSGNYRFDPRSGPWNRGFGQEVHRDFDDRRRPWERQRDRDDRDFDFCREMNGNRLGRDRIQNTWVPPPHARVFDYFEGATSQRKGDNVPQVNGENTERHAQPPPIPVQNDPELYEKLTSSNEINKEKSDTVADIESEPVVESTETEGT

What was measured:
Assay in all cases: log2 fold change, soluble protein after heating vs DMSO (PISA); higher = thermal stabilisation; K562 cells, 10 uM, 30 min; active = over 0.2 and 3.5 SD of the protein, either way, in both replicates (recomputed)
erlotinib = compound: C#Cc1cccc(Nc2ncnc3cc(OCCOC)c(OCCOC)cc23)c1 [erlotinib]
In short: (§1)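 For each measurement, 10 μM compound was applied for 30 min to K562 cells at 2×10^6 cells/mL. Aliquots were heated for 3 min across 48°C-58°C, pooled, and extracted in PBS with 0.5% NP-40 at 4°C; the supernatant after 21,000xg for 90 min was soluble protein. This was quantified by TMTpro 16plex LC-MS/MS with channel sums equalised, and thermal stability was reported relative to control samples from duplicates, on a log2 fold-change scale.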

[1] = compound: C/C(=N\NC(=O)C1=CC(=CC=C1)S(=O)(=O)N2CCOCC2)/C3=C(C=CC(=C3)Cl)O
In short: as §1

[2] = compound: C1=CC(=C(C=C1Cl)C2=NC3=NC=CN=C3C(=N2)NC4=CC=NC=C4)F
In short: as §1

[3] = compound: C1=CC(=CC=C1C2=NC3=C(N2)C=C(C=C3)C(=O)N)OC4=CC=C(C=C4)Cl
In short: as §1

[4] = compound: C1=CC2=C(C=CC(=C2)/C=C\3/C(=O)NC(=NCC4=CC=CS4)S3)N=C1
In short: as §1

[5] = compound: C1=CC2=NC=CN=C2C=C1/C=C/3\C(=O)NC(=O)S3
In short: as §1

[6] = compound: C1=CC=C(C=C1)C2=NC(=C(N2)C3=CC=NC=C3)C4=CC(=C(C=C4)Cl)O
In short: as §1

[7] = compound: C1=CC=C2C(=C1)C3=NNC4=CC=CC(=C43)C2=O
In short: as §1

[8] = compound: C1CCN(C1)C(=O)NC2=CC=CC(=C2)NC3=NC=C(C(=N3)NCCC4=CN=CN4)Br
In short: as §1

[9] = compound: C1CN(CCC1(CC2=CC=C(C=C2)Cl)N)C3=NC=NC4=C3C=CN4
In short: as §1

IRAK-1-4 Inhibitor I = compound: C1COCCN1CCN2C3=CC=CC=C3N=C2NC(=O)C4=CC(=CC=C4)[N+](=O)[O-] [IRAK-1-4 Inhibitor I]
In short: as §1

ibrutinib = compound: C=CC(=O)N1CCC[C@@H](n2nc(-c3ccc(Oc4ccccc4)cc3)c3c(N)ncnc32)C1 [ibrutinib]
In short: as §1

[10] = compound: CC(=O)c1cnc2ccc(-c3cc(Cl)c(O)c(Cl)c3)nc2c1N[C@H]1CC[C@H](CN(C)C)CC1
In short: as §1

ralimetinib = compound: CC(C)(C)Cn1c(N)nc2ccc(-c3[nH]c(C(C)(C)C)nc3-c3ccc(F)cc3)nc21 [ralimetinib]
In short: as §1

[11] = compound: CC(C)(O)CC(=O)NCCn1ccc2ncnc(Nc3ccc(Oc4cccc(C(F)(F)F)c4)c(Cl)c3)c21
In short: as §1

[12] = compound: CC(C)C1=C2N=C(C=C(N2N=C1)NCC3=CC=CC=C3)NCCCCCCN
In short: as §1

[13] = compound: CC(C)C[C@@H](C=O)NC(=O)[C@H](CC(C)C)NC(=O)[C@H](CC(C)C)NC(=O)OCc1ccccc1
In short: as §1

pinometostat = compound: CC(C)N(C[C@H]1O[C@@H](n2cnc3c(N)ncnc32)[C@H](O)[C@@H]1O)[C@H]1C[C@@H](CCc2nc3cc(C(C)(C)C)ccc3[nH]2)C1 [pinometostat]
In short: as §1

[14] = compound: CC1=C(C2=C(C=C1)C(=O)C3=CC=CC=C3N2CCCN)C
In short: as §1

[15] = compound: CC1=C(C(CC(=O)N1)C2=CC=C(C=C2)C(F)(F)F)C(=O)NC3=C(C=C4C(=C3)C=NN4)F
In short: as §1

Target | log2 fold change (erlotinib) | log2 fold change [1] | log2 fold change [2] | log2 fold change [3] | log2 fold change [4] | log2 fold change [5] | log2 fold change [6] | log2 fold change [7] | log2 fold change [8] | log2 fold change [9] | log2 fold change (IRAK-1-4 Inhibitor I) | log2 fold change (ibrutinib) | log2 fold change [10] | log2 fold change (ralimetinib) | log2 fold change [11] | log2 fold change [12] | log2 fold change [13] | log2 fold change (pinometostat) | log2 fold change [14] | log2 fold change [15]
SCG3 (UniProt Q8WXD2) | inactive: -0.076 | inactive: 0.141 | inactive: 0.023 | inactive: 0.088 | inactive: 0.09 | inactive: -0.015 | inactive: 0.103 | inactive: -0.094 | inactive: -0.05 | inactive: 0.036 | inactive: -0.003 | inactive: 0.035 | inactive: -0.107 | inactive: 0.061 | inactive: 0.039 | inactive: 0.203 | inactive: 0.038 | inactive: -0.139 | inactive: -0.359 | 
SEC24A (UniProt O95486) | inactive: 0.084 | inactive: 0.097 | inactive: 0.031 | inactive: -0.018 | inactive: 0.033 | inactive: -0.022 | inactive: 0.036 | inactive: 0.022 | inactive: -0.026 | inactive: 0.011 | inactive: -0.038 | inactive: -0.017 | inactive: -0.013 | inactive: 0.018 | inactive: -0.066 | inactive: -0.057 | inactive: -0.005 | inactive: 0.005 | inactive: 0.019 | 
SEC31A (UniProt O94979) | inactive: 0.049 | inactive: 0.023 | inactive: 0.006 | inactive: -0.025 | inactive: 0.094 | inactive: 0.016 | inactive: -0.045 | inactive: 0.023 | inactive: -0.06 | inactive: -0.025 | inactive: -0.076 | inactive: -0.11 | inactive: 0.005 | inactive: 0.028 | inactive: -0.054 | inactive: -0.008 | inactive: 0.033 | inactive: 0.071 | inactive: 0.095 | 
SAMSN1 isoform 3 (UniProt Q9NSI8) | inactive: 0.027 | inactive: 0.012 | inactive: -0.006 | inactive: 0.001 | inactive: 0.037 | inactive: 0.021 | inactive: -0.009 | inactive: -0.022 | inactive: 0.007 | inactive: -0.114 | inactive: 0.028 | inactive: -0.021 | inactive: -0.125 | inactive: -0.016 | inactive: -0.034 | inactive: -0.095 | inactive: 0.041 | inactive: 0.014 | inactive: 0.008 | 
SDHAF3 (UniProt Q9NRP4) | inactive: 0.003 | inactive: 0.056 | inactive: 0.024 | inactive: -0.012 | inactive: 0.033 | inactive: 0.081 | inactive: -0.129 | inactive: -0.044 | inactive: 0.053 | inactive: 0 | inactive: 0.062 | inactive: -0.017 | inactive: 0.003 | inactive: -0.063 | inactive: -0.147 | inactive: -0.214 | inactive: -0.034 | inactive: -0.008 | inactive: -0.048 | inactive: -0.003
SEC23A (UniProt Q15436) | inactive: 0.026 | inactive: 0.1 | inactive: 0.022 | inactive: -0.036 | inactive: -0.024 | inactive: 0.021 | inactive: 0.005 | inactive: -0.018 | inactive: 0.019 | inactive: -0.019 | inactive: 0.06 | inactive: 0 | inactive: 0.077 | inactive: 0.026 | inactive: -0.123 | inactive: -0.014 | inactive: -0.006 | inactive: -0.004 | inactive: 0.121 | 
RTN4 isoform 2 (UniProt Q9NQC3) | inactive: 0.075 | inactive: -0.042 | inactive: -0.03 | inactive: 0.032 | inactive: 0.026 | inactive: 0.021 | inactive: -0.026 | inactive: -0.025 | inactive: 0.041 | inactive: 0.067 | inactive: 0.118 | inactive: -0.019 | inactive: 0.054 | inactive: -0.111 | inactive: -0.071 | inactive: -0.097 | inactive: -0.028 | inactive: -0.061 | inactive: -0.068 | 
SDSL (UniProt Q96GA7) | inactive: 0.016 | inactive: 0.031 | inactive: 0.054 | inactive: 0.036 | inactive: -0.06 | inactive: 0.056 | inactive: -0.052 | inactive: -0.021 | inactive: 0.018 | inactive: 0.088 | inactive: 0.049 | inactive: 0.043 | inactive: 0.013 | inactive: -0.08 | inactive: -0.015 | inactive: 0.046 | inactive: 0.008 | inactive: -0.045 | inactive: 0.053 | inactive: 0.006
SAAL1 (UniProt Q96ER3) | inactive: -0.044 | inactive: 0.028 | inactive: 0.046 | inactive: 0.022 | inactive: -0.033 | inactive: 0.125 | inactive: -0.041 | inactive: -0.007 | inactive: 0.042 | inactive: -0.03 | inactive: 0.019 | inactive: -0.035 | active: 0.578 | inactive: -0.033 | inactive: -0.112 | inactive: 0.012 | inactive: 0.032 | inactive: 0.073 | active: 0.239 | 
RWDD4 (UniProt Q6NW29) | inactive: 0.006 | inactive: 0.016 | inactive: -0.027 | inactive: -0.025 | inactive: 0.095 | inactive: 0.053 | inactive: -0.129 | inactive: 0.016 | inactive: -0.019 | inactive: -0.106 | inactive: -0.069 | inactive: 0.034 | inactive: -0.081 | inactive: 0.014 | inactive: 0.01 | inactive: -0.115 | inactive: -0.006 | inactive: 0.075 | inactive: -0.06 | inactive: 0.01
RUFY1 (UniProt Q96T51) | inactive: 0.01 | inactive: 0.094 | inactive: -0.046 | inactive: -0.018 | inactive: 0.022 | inactive: 0.034 | inactive: -0.027 | inactive: 0 | inactive: 0.031 | inactive: -0.084 | inactive: -0.019 | inactive: -0.002 | inactive: 0.101 | inactive: 0.034 | inactive: -0.092 | inactive: -0.182 | inactive: 0.011 | inactive: 0.083 | inactive: -0.014 | 
RTN4IP1 (UniProt Q8WWV3) | inactive: 0.016 | inactive: 0 | inactive: 0.041 | inactive: 0.066 | inactive: 0.048 | inactive: -0.08 | inactive: 0.014 | inactive: 0.027 | inactive: -0.064 | inactive: 0.074 | inactive: -0.036 | inactive: 0.214 | inactive: -0.326 | inactive: 0.034 | inactive: -0.046 | inactive: 0.063 | inactive: -0.009 | inactive: 0.02 | inactive: 0.14 | 
RSRC2 (UniProt Q7L4I2) | inactive: 0.023 | inactive: -0.01 | inactive: -0.009 | inactive: -0.012 | inactive: -0.05 | inactive: 0.018 | inactive: 0.019 | inactive: -0.032 | inactive: 0 | inactive: 0.012 | inactive: 0.03 | inactive: -0.035 | active: -0.284 | inactive: 0.012 | inactive: -0.033 | inactive: -0.013 | inactive: -0.026 | inactive: -0.019 | inactive: 0.016 | 
SDF4 (UniProt Q9BRK5) | inactive: 0.013 | inactive: -0.015 | inactive: -0.019 | inactive: -0.012 | inactive: -0.027 | inactive: 0.038 | inactive: -0.043 | inactive: 0.029 | inactive: 0.03 | inactive: 0.026 | inactive: 0.015 | inactive: 0.009 | inactive: 0.052 | inactive: -0.084 | inactive: -0.045 | inactive: 0.03 | inactive: 0.021 | inactive: -0.003 | inactive: 0.009 | inactive: -0.022
SCCPDH (UniProt Q8NBX0) | inactive: -0.047 | inactive: -0.021 | inactive: 0.079 | inactive: -0.065 | inactive: 0.019 | inactive: 0.051 | inactive: 0.037 | inactive: 0.03 | inactive: 0.011 | inactive: 0.064 | inactive: -0.005 | inactive: 0.061 | inactive: 0.031 | inactive: 0.059 | inactive: 0.156 | inactive: 0.038 | inactive: -0.032 | inactive: -0.073 | inactive: 0.023 | 
SDHC (UniProt Q99643) | inactive: -0.017 | inactive: 0.033 | inactive: -0.015 | inactive: 0.033 | inactive: -0.013 | inactive: 0.17 | inactive: 0.104 | inactive: 0.102 | inactive: 0.008 | inactive: 0.02 | inactive: 0.095 | inactive: 0.004 | inactive: 0.025 | inactive: -0.055 | inactive: -0.185 | inactive: 0.012 | inactive: -0.286 | inactive: -0.086 | inactive: 0.108 | 
SCAF8 isoform 2 (UniProt Q9UPN6) | inactive: 0.203 | inactive: 0.051 | inactive: 0.048 | inactive: 0.034 | inactive: 0.124 | inactive: -0.028 | inactive: 0.298 | inactive: 0.069 | inactive: -0.031 | inactive: -0.036 | inactive: 0.035 | inactive: -0.057 | inactive: -0.145 | inactive: -0.054 | inactive: -0.169 | active: -0.417 | inactive: 0.23 | inactive: 0.065 | inactive: 0.138 | 

Shown tab-delimited: entries from further up.
Target	log2 fold change (erlotinib)	log2 fold change [1]	log2 fold change [2]	log2 fold change [3]	log2 fold change [4]	log2 fold change [5]	log2 fold change [6]	log2 fold change [7]	log2 fold change [8]	log2 fold change [9]	log2 fold change (IRAK-1-4 Inhibitor I)	log2 fold change (ibrutinib)	log2 fold change [10]	log2 fold change (ralimetinib)	log2 fold change [11]	log2 fold change [12]	log2 fold change [13]	log2 fold change (pinometostat)	log2 fold change [14]	log2 fold change [15]
SCCPDH (UniProt Q8NBX0)	inactive: -0.047	inactive: -0.021	inactive: 0.079	inactive: -0.065	inactive: 0.019	inactive: 0.051	inactive: 0.037	inactive: 0.03	inactive: 0.011	inactive: 0.064	inactive: -0.005	inactive: 0.061	inactive: 0.031	inactive: 0.059	inactive: 0.156	inactive: 0.038	inactive: -0.032	inactive: -0.073	inactive: 0.023	
SDHC (UniProt Q99643)	inactive: -0.017	inactive: 0.033	inactive: -0.015	inactive: 0.033	inactive: -0.013	inactive: 0.17	inactive: 0.104	inactive: 0.102	inactive: 0.008	inactive: 0.02	inactive: 0.095	inactive: 0.004	inactive: 0.025	inactive: -0.055	inactive: -0.185	inactive: 0.012	inactive: -0.286	inactive: -0.086	inactive: 0.108	
